The results in this text go back to paper PMC12059312.

No constants are given. Whether binding was seen depends on the method and setting. In cells and extracts the contact can be indirect. Some results given as binding are weak or reduced against the parent protein; the word gives no strength.

In the assay the target is T1, CDCA7 (human (endogenous in human primary chondrocytes)) (UniProt Q9BWT1).
T1 sequence: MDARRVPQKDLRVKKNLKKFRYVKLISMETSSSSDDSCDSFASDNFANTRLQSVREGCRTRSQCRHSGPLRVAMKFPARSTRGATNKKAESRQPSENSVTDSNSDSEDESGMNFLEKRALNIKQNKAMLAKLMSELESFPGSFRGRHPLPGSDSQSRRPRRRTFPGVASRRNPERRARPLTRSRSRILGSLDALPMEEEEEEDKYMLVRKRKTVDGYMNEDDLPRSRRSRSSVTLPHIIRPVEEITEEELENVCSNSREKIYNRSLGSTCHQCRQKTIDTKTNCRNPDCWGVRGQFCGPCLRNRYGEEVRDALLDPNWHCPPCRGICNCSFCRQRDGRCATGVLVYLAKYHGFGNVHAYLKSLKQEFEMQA
In words: co-IP; CDCA7 as bait protein; human primary chondrocytes exposed to or not to 20% CTS loading for 24 h.

B1: lymphoid-specific helicase (HELLS) (protein, UniProt Q9NRZ9 1-838)
chain: MPAERPAGSGGSEAPAMVEQLDTAVITPAMLEEEEQLEAAGLERERKMLEKARMSWDRESTEIRYRRLQHLLEKSNIYSKFLLTKMEQQQLEEQKKKEKLERKKESLKVKKGKNSIDASEEKPVMRKKRGREDESYNISEVMSKEEILSVAKKNKKENEDENSSSTNLCVEDLQKNKDSNSIIKDRLSETVRQNTKFFFDPVRKCNGQPVPFQQPKHFTGGVMRWYQVEGMEWLRMLWENGINGILADEMGLGKTVQCIATIALMIQRGVPGPFLVCGPLSTLPNWMAEFKRFTPDIPTMLYHGTQEERQKLVRNIYKRKGTLQIHPVVITSFEIAMRDRNALQHCYWKYLIVDEGHRIKNMKCRLIRELKRFNADNKLLLTGTPLQNNLSELWSLLNFLLPDVFDDLKSFESWFDITSLSETAEDIIAKEREQNVLHMLHQILTPFLLRRLKSDVALEVPPKREVVVYAPLSKKQEIFYTAIVNRTIANMFGSSEKETIELSPTGRPKRRTRKSINYSKIDDFPNELEKLISQIQPEVDRERAVVEVNIPVESEVNLKLQNIMMLLRKCCNHPYLIEYPIDPVTQEFKIDEELVTNSGKFLILDRMLPELKKRGHKVLLFSQMTSMLDILMDYCHLRDFNFSRLDGSMSYSEREKNMHSFNTDPEVFIFLVSTRAGGLGINLTAADTVIIYDSDWNPQSDLQAQDRCHRIGQTKPVVVYRLVTANTIDQKIVERAAAKRKLEKLIIHKNHFKGGQSGLNLSKNFLDPKELMELLKSRDYEREIKGSREKVISDKDLELLLDRSDLIDQMNASGPIKEKMGIFKILENSEDSSPECLF
As for B1, the binding entry is listed as “binds”.
